Drawing on PMC10158025, this text covers binding for 2 substances.

Results are given in words; binding and its absence hold for the method and conditions named. In cells and extracts the contact can be indirect. Some results given as binding are weak or reduced against the parent protein; the word gives no strength.

The target in assay [1] is CtBP2-Gluc-N / CtBP2-Gluc-C (CtBP-Gluc-PCA reporter) (human) (UniProt P56545). Description: split reporter; Gluc-PCA in 293 cells co-transfected with the Gluc-N and Gluc-C fusions, luminance read; MTOB treatment gave a dose-dependent reduction of the signal.
Assay [2] addresses CtBP2-W324G EGFP-PCA reporter (human) (UniProt P56545). Briefly: split reporter; EGFP-PCA: CtBP fused with the EGFP N-terminus or C-terminus, EGFP signal imaged in live cells; cell line of Fig. 1H not stated; CtBP2 reporter also in SKOV3 cells treated with 2-DG, 3-BP, FK866 or 30 uM cisplatin (signal reduced) or metformin (signal increased).

Consider “CtBP2-Gluc-N / CtBP2-Gluc-C (CtBP-Gluc-PCA reporter) (from UniProt P56545 1-445)”, for which, in assay [1], the binding entry is reported as “binds weakly”. For “CtBP2-W324G EGFP-PCA reporter (from UniProt P56545 1-445)”, the binding result in assay [2] is “no binding”.
